Assay [1] addresses T1, cynomolgus CD137 over-expressed on CHO cells (extracellular part fused to transmembrane and intracellular part of hCD40) (cynomolgus (Macaca fascicularis); human) (UniProt A9YYE7+P25942). The assay can be described thus: Cynomolgus CD137 cross-reactivity (summary table).
Assay [2] addresses T1, cynomolgus CD137 over-expressed on CHO cells (extracellular part fused to transmembrane and intracellular part of hCD40) (cynomolgus (Macaca fascicularis); human). The assay is described as follows: flow cytometry, CHO-cyCD137.

Amino acid sequences for entries named in this document (tags omitted). A change or cut given only in a name is not applied to a line headed by its entry.
UniProt A9YYE7: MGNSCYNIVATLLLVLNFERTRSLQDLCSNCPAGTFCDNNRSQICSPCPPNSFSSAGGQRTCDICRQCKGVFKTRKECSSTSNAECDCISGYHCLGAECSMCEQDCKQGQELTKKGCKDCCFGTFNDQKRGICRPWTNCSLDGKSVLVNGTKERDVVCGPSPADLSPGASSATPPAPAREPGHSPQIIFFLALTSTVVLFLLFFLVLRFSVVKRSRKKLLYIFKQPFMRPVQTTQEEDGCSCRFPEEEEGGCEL
UniProt P25942: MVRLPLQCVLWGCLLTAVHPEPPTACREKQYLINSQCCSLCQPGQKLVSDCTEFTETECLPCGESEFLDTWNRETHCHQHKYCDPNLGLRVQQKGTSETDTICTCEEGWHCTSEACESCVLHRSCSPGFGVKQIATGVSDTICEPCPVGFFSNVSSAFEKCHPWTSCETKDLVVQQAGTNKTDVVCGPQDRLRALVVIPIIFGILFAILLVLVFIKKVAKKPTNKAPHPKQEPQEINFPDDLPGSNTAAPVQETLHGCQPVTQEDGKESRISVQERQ

No constants are given. Whether binding was seen depends on the method and setting. Some results given as binding are weak or reduced against the parent protein; the word gives no strength.

B1: anti-CD137 antibody 1618/1619 (antibody, IgG1, V domains shown)
VH: EVQLLESGGGLVQPGGSLRLSCAASGFTFSYGSMYWVRQAPGKGLEWVSSISSGSGSTYYADSVKGRFTISRDNSKNTLYLQMNSLRAEDTAVYYCARSSYYGSYYSIDYWGQGTLVTVSS
VL: DIQMTQSPSSLSASVGDRVTITCRASQSISSYLNWYQQKPGKAPKLLIYAASSLQSGVPSRFSGSGSGTDFTLTISSLQPEDFATYYCQQYYDNLPTFGQGTKLEIK
Regarding B1, the binding result in assay [1] and in assay [2] was “binds” each time.

The record behind these values is patent publication US20180118841A1.
